These results are taken from the supplement of paper PMC10849652.

By UniProt entry, the sequences of proteins in these tests, tags left out. Where a name states a change or a piece, a line headed by the entry shows the natural chain unless it says otherwise.
UniProt Q9BRK5: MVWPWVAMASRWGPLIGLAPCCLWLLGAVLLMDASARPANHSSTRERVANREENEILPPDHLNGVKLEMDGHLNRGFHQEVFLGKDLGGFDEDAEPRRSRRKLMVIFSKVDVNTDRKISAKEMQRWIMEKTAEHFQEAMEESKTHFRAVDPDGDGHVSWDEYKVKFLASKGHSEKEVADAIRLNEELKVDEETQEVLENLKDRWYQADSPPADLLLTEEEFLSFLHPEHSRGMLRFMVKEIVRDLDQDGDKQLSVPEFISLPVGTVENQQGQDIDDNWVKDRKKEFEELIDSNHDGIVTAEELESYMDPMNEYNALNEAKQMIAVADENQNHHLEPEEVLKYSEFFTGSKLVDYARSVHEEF
UniProt Q9NZJ4: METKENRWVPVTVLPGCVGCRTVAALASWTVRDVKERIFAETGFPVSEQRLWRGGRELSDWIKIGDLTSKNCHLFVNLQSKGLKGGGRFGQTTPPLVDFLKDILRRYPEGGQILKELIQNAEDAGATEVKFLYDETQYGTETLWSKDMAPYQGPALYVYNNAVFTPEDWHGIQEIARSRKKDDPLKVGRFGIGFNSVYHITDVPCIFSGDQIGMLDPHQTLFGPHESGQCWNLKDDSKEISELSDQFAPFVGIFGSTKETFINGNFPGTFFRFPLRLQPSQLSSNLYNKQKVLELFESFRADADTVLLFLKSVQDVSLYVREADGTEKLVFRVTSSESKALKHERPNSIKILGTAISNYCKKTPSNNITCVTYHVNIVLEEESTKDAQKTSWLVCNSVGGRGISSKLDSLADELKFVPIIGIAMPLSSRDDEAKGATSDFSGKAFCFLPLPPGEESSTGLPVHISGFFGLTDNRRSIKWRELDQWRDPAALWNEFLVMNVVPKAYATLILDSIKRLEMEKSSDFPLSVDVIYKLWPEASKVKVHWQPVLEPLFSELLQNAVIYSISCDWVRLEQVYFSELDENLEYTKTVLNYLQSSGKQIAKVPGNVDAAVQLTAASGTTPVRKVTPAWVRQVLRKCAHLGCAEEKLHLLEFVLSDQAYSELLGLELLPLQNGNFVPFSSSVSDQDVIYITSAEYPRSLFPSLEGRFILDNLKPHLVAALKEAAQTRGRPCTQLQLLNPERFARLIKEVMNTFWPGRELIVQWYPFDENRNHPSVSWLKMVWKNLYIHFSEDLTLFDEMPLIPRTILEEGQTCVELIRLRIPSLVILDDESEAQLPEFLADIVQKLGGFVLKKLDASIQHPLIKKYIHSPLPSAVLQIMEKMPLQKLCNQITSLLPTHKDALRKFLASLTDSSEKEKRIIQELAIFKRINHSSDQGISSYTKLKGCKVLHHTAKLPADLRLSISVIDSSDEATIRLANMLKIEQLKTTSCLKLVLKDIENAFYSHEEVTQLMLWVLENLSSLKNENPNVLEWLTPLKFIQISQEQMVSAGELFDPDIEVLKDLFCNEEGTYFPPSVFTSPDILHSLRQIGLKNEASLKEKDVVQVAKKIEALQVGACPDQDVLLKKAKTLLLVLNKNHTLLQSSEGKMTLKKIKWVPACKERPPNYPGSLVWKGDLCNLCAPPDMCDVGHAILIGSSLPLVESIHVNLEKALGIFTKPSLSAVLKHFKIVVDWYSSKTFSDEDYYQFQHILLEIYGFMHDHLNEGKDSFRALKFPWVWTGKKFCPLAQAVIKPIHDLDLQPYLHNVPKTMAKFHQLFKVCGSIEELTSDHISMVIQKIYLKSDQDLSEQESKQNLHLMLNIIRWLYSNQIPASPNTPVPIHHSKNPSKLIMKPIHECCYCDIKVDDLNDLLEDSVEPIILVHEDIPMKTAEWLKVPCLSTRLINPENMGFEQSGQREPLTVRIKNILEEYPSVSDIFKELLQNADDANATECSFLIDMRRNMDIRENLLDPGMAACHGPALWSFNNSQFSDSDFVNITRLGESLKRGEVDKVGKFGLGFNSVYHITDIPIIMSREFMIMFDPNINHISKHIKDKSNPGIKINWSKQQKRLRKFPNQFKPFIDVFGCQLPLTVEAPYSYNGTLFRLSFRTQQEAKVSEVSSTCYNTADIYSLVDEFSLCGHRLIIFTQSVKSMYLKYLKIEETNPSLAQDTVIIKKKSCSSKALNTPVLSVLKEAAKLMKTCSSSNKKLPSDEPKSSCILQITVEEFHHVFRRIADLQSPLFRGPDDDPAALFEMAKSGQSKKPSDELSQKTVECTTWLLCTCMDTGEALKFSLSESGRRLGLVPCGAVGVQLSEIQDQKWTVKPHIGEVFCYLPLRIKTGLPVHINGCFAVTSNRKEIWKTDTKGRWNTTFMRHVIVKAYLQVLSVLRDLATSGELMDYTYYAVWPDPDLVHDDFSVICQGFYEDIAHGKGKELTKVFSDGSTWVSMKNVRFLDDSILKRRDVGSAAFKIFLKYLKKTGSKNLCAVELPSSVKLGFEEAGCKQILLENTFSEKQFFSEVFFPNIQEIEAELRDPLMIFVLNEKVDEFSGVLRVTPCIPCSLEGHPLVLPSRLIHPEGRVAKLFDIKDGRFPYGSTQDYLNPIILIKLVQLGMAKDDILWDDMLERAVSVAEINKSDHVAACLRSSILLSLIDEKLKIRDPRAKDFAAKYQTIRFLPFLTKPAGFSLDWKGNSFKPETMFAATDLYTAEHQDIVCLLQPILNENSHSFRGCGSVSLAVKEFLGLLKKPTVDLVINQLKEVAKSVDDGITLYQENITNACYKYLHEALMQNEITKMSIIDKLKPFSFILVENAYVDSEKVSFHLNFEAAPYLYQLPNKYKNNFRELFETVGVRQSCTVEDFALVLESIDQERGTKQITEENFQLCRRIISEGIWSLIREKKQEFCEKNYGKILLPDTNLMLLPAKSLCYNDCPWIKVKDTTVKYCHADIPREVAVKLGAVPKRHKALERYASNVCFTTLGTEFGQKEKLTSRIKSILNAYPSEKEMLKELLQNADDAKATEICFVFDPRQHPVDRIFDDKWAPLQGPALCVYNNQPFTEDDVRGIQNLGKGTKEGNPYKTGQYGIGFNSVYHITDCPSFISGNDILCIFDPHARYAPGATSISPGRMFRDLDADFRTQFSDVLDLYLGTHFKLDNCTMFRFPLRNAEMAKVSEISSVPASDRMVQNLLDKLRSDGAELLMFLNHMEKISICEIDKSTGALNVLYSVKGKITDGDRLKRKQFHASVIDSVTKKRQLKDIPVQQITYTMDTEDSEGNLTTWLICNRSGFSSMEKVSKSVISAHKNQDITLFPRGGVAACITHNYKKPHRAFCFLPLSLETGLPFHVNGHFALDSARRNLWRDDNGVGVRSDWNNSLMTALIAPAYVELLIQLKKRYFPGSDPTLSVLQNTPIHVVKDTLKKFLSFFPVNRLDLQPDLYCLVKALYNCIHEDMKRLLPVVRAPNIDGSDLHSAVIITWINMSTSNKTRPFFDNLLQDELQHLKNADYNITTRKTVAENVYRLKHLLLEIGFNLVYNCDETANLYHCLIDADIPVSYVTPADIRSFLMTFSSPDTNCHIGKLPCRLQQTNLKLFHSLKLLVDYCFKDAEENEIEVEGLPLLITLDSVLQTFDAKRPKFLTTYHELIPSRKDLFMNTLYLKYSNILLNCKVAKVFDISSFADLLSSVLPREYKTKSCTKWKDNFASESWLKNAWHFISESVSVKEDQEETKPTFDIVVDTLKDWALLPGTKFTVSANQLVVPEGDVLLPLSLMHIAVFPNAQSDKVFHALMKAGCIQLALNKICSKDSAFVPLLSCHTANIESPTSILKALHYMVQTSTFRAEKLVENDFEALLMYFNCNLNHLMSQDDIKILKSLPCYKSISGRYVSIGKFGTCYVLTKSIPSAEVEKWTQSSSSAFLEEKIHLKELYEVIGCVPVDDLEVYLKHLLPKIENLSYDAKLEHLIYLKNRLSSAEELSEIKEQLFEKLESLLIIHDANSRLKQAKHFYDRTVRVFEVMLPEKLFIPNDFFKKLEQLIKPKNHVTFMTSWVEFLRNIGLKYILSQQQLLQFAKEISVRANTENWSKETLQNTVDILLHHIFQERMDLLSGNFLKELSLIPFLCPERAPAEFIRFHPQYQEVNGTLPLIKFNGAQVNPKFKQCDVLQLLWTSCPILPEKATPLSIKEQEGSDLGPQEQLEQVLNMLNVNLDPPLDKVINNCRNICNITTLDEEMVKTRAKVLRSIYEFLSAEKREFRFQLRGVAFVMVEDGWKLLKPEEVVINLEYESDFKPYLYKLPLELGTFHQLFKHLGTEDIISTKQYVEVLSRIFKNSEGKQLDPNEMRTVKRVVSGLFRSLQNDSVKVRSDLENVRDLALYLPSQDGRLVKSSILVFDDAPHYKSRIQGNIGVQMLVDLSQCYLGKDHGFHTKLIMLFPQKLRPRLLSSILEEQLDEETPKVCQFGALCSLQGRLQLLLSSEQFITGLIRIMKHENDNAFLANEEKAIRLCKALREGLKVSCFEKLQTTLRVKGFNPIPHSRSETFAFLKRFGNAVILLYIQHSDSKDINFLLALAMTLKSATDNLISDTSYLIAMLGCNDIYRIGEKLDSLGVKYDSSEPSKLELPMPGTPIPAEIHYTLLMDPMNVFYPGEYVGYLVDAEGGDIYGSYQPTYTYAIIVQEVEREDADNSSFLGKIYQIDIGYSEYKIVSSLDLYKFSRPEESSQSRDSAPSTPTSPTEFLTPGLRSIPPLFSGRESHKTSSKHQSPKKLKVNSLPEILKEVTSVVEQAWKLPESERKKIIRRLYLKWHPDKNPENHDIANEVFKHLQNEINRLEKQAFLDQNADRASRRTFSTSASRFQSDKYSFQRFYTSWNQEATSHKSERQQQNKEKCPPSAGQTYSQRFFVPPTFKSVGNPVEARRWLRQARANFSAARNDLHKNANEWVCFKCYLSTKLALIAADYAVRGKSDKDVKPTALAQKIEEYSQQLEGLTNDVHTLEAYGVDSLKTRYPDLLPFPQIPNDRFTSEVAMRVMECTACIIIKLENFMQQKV
UniProt Q9Y224: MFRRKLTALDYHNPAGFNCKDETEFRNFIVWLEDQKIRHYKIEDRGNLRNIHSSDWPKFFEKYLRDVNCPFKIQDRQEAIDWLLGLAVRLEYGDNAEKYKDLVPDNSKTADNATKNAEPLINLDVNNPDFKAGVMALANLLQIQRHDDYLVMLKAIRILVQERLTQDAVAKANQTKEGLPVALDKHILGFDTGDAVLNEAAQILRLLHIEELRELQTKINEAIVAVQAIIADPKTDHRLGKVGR
UniProt Q6PCB5: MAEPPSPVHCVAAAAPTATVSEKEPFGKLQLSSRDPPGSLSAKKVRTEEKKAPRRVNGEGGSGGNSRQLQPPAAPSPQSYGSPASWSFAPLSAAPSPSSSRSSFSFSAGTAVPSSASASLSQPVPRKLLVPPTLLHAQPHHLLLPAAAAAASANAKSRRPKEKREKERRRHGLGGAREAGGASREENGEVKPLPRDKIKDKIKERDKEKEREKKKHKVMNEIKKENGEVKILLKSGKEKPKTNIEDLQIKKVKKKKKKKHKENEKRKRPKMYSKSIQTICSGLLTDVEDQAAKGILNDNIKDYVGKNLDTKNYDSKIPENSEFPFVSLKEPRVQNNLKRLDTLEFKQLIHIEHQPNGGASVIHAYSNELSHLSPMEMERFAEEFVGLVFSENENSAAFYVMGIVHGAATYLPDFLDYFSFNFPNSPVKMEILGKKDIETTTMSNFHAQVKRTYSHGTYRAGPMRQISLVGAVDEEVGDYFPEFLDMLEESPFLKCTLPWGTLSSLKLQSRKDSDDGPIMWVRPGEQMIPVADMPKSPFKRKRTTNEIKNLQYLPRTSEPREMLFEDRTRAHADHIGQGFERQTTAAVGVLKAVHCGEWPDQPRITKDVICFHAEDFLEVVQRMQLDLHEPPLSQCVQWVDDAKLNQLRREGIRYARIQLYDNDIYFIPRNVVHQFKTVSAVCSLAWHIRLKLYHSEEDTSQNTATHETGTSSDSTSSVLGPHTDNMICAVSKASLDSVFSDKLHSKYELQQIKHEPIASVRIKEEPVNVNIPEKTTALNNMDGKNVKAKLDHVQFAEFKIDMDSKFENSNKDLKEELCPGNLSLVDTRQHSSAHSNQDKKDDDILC
UniProt Q9NRP4: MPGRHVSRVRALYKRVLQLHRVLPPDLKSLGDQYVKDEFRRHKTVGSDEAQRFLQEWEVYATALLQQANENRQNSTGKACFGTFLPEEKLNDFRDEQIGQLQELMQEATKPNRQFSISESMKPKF
UniProt P25815: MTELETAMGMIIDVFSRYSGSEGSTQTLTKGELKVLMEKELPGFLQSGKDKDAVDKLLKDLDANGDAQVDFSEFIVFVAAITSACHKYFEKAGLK
UniProt Q969E2: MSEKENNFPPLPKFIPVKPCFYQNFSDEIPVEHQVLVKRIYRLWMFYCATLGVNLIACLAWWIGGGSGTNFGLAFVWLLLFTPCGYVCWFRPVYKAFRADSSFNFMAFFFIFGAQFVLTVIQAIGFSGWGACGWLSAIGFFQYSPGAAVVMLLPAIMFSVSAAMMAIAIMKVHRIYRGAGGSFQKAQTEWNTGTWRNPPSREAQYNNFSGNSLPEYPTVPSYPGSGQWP

Some of the results follow.

Compound in this assay: Cc1cc(SCc2sc(-c3ccc(C(F)(F)F)cc3)nc2C)ccc1OCC(=O)O
In words: log2 fold change, soluble protein after heating vs DMSO (PISA); higher = thermal stabilisation; K562 cells, 10 uM, 30 min; active = over 0.2 and 3.5 SD of the protein, either way, in both replicates (recomputed). In outline: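 Quantification of soluble protein used TMTpro 16plex LC-MS/MS, with channel sums equalised. Samples were the supernatant after 21,000xg for 90 min of pooled aliquots from K562 cells (2×10^6 cells/mL) treated with 10 μM compound for 30 min, heated for 3 min over 48°C-58°C, and extracted in PBS with 0.5% NP-40 at 4°C. Values, from duplicates, describe thermal stability against control samples on a log2 fold-change scale.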
In the case of SCFD2 (UniProt Q8WU76), the log2 fold change is inactive: 0.058.
Consider SCARB1 isoform 2 (UniProt Q8WTV0), for which the log2 fold change was inactive: 0.037.
Take RWDD1 (UniProt Q9H446): the log2 fold change was inactive: -0.047.
As to SCIN (UniProt Q9Y6U3), the log2 fold change is inactive: 0.139.
SDF4 (UniProt Q9BRK5): the log2 fold change is inactive: -0.012.
With RYBP (UniProt Q8N488), the log2 fold change is inactive: -0.13.
As to SCO1 (UniProt O75880), the log2 fold change was inactive: 0.032.
Regarding SACS (UniProt Q9NZJ4), the log2 fold change was inactive: 0.085.
In the case of RTRAF (UniProt Q9Y224), the log2 fold change is inactive: -0.007.
As for SCYL1 (UniProt Q96KG9), the figure is inactive: 0.086; as for S100A6 (UniProt P06703), inactive: 0.019.
Take SDHA (UniProt P31040): the log2 fold change was inactive: -0.013.
RSBN1L (UniProt Q6PCB5): the log2 fold change was inactive: 0.019.
Take RUVBL1 (UniProt Q9Y265): the log2 fold change was inactive: -0.072.
As for SDHAF3 (UniProt Q9NRP4), the log2 fold change was inactive: -0.011.
Consider SBNO1 (UniProt A3KN83), for which the log2 fold change was inactive: 0.031.
Consider SCLY (UniProt Q96I15), for which the log2 fold change was inactive: -0.051.
Regarding S100P (UniProt P25815), the log2 fold change is inactive: -0.05.
On to SCP2 (UniProt P22307), for which the log2 fold change is inactive: -0.01.
Turning to SCAMP4 (UniProt Q969E2), the log2 fold change was inactive: -0.041.
SCARB2 (UniProt Q14108): the log2 fold change is inactive: -0.093.
Regarding SCAP (UniProt Q12770), the log2 fold change was inactive: 0.016.
In the case of SEC24D isoform 2 (UniProt O94855), the log2 fold change is inactive: 0.054.
